In ChEMBL document CHEMBL4699667, “Discovery of the Potent, Selective, Orally Available CXCR7 Antagonist ACT-1004-1239” (J Med Chem, 2020):

Assay: physchem
Conditions: octanol/water, pH 7.4

**Q.** Which logD does the source give for `O=C(N[C@H]1CCN(C2CCCCC2)C[C@@H]1C(=O)NCCc1ccccn1)c1cc(-c2ccc(F)cc2F)on1` here?
**A.** 3.6

**Q.** With `O=C(NC1CCN(C2CCCCC2)CC1)c1nnc(-c2ccc(F)cc2F)o1` as the molecule, how does the logD read?
**A.** 1.6
